In US10100010B1, “4-methoxy pyrrole derivatives or salts thereof and pharmaceutical composition comprising the same” (Daewoong Pharmaceutical Co., Ltd., priority 2015, dated 2018):
Structures were worked out from names or drawings and are uncertain.

Sequences of proteins named here, by UniProt entry; tags and fusion partners are left off.
UniProt P28223, whole entry: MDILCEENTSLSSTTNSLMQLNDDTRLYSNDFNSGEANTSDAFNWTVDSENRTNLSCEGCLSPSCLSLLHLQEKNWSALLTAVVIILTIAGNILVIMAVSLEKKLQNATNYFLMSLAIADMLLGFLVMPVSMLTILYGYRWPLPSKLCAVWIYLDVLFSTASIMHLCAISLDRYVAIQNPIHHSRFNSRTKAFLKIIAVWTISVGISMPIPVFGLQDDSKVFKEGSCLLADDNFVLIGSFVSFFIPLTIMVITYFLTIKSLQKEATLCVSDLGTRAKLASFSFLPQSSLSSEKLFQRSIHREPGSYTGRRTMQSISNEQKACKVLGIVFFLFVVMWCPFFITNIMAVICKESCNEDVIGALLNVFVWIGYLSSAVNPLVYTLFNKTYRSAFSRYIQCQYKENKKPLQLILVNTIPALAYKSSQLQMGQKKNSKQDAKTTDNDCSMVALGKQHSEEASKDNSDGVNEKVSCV
UniProt P11229, whole entry: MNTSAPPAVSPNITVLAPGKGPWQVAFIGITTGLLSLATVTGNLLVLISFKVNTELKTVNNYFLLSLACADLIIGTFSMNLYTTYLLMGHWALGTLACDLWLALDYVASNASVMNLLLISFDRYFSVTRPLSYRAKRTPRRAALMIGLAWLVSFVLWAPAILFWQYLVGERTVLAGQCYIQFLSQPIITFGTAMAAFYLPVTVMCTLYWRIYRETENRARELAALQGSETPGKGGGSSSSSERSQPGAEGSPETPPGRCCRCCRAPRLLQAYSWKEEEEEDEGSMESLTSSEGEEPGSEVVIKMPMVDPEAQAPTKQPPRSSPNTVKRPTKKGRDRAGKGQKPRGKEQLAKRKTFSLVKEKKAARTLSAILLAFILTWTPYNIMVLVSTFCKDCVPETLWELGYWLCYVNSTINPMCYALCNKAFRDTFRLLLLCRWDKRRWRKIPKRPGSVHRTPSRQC
UniProt P08172, whole entry: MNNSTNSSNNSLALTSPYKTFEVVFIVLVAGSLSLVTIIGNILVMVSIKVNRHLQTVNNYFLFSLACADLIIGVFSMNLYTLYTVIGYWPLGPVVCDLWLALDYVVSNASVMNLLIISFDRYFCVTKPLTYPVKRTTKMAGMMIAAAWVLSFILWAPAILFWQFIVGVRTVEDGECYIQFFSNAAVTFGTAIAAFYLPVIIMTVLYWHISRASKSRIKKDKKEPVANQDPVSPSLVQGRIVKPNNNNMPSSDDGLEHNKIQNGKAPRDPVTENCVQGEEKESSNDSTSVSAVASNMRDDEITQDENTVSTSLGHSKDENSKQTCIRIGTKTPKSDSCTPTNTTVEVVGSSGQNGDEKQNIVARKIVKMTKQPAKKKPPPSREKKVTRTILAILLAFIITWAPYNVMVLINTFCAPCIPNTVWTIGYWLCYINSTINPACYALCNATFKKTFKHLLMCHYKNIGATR

Legend:
Format in all cases: cell-based
Conditions in all cases: tested form: HCl
5-HT2A = 5-HT2A (Homo sapiens, UniProt P28223); assay: GPCR Calcium Flux assay (FLIPR tetra, Eurofins), 5-HT2A
Protocol: (§1) In order to confirm whether the compounds prepared in the above Examples act as an agonist or antagonist against GPCR Target, Calcium Flux assay was performed in an assay plate in which the compounds prepared in the Examples, vehicle controls, and reference compounds were added, using a Fluorometric imaging plate reader (FLIPR tetra) equipment.
(§2) Calcium Flux assay was evaluated by entrusting the GPCR profiler assay in Safety panel assays with Eurofins. By using the Fluo-8AM calcium dye, excitation was measured at a wavelength in the range of 470 to 495 nm and Emission was measured at a wavelength in the range of 515-575 nm. GPCR Assay Buffer for Calcium Flux assay was prepared by adding 20 mM of HEPES and 2.5 mM of Probenecid to Hanks Balanced Salt Solution (HBSS) to have pH 7.4. The Compounds of Examples for evaluation of the GPCR were diluted with DMSO at a concentration of 10 mM to make a stock and then prepared by diluting in the GPCR Assay Buffer at the concentration equivalent to three times the final concentration. […] In order to evaluate the agonist and antagonist, % inhibition rate against GPCR activity before and after treatment of the compounds and the inhibitory activity of the compounds of the Examples were determined. […]

M1 = M1 (Homo sapiens, UniProt P11229); assay: GPCR Calcium Flux assay (FLIPR tetra, Eurofins), M1
Protocol: as §1, §2

M2 = M2 (Homo sapiens, UniProt P08172); assay: GPCR Calcium Flux assay (FLIPR tetra, Eurofins), M2
Protocol: as §1, §2

In the case of `CNCc1cn(S(=O)(=O)c2cccc(F)c2)c(-c2c(F)ccc(F)c2F)c1OC`, the IC50 (5-HT2A; read-out: 50% inhibitory concentration (IC50) 5-HT2A, 8 concentrations 10 to 0.0006 uM) is reported as 0.057 µM, the “inhibition rate (%) 5-HT2A” value (5-HT2A; single concentration of 10 uM) is reported as 99.1% and the IC50 (M1; read-out: 50% inhibitory concentration (IC50) M1, 8 concentrations 10 to 0.0006 uM) is reported as 0.051 µM. The “inhibition rate (%) M1” value (M1; single concentration of 10 uM) was 101.1%, the IC50 (M2; read-out: 50% inhibitory concentration (IC50) M2, 8 concentrations 10 to 0.0006 uM) was 0.18 µM and the “inhibition rate (%) M2” value (M2; single concentration of 10 uM) was 100.3%.
